Laboratory results: publication PMC7726220
Results are given in words; binding and its absence hold for the method and conditions named. Binding seen in cells or lysates may run through a third protein. Some binding calls cover weakened binding; strength is not graded here. Where a sequence is shown, tags or fusion partners need not be part of it.

Experiments:
Experiment in all cases: co-IP; HEK 293T cells transiently transfected with tagged constructs (or endogenous partner); lysis in 50 mM Tris-HCl pH 8.0, 150 mM NaCl, 10% glycerol, 1 mM EDTA, 1% DDM or 0.5% NP-40; anti-Flag M2, anti-c-Myc or anti-HA magnetic beads; Western blot; in Figure 6D with or without overexpressed TMEM132A
[1] = target: T1, Flag-tagged full-length TMEM132A (FL T132A-Flag) (mouse) (UniProt Q922P8)
T1 sequence: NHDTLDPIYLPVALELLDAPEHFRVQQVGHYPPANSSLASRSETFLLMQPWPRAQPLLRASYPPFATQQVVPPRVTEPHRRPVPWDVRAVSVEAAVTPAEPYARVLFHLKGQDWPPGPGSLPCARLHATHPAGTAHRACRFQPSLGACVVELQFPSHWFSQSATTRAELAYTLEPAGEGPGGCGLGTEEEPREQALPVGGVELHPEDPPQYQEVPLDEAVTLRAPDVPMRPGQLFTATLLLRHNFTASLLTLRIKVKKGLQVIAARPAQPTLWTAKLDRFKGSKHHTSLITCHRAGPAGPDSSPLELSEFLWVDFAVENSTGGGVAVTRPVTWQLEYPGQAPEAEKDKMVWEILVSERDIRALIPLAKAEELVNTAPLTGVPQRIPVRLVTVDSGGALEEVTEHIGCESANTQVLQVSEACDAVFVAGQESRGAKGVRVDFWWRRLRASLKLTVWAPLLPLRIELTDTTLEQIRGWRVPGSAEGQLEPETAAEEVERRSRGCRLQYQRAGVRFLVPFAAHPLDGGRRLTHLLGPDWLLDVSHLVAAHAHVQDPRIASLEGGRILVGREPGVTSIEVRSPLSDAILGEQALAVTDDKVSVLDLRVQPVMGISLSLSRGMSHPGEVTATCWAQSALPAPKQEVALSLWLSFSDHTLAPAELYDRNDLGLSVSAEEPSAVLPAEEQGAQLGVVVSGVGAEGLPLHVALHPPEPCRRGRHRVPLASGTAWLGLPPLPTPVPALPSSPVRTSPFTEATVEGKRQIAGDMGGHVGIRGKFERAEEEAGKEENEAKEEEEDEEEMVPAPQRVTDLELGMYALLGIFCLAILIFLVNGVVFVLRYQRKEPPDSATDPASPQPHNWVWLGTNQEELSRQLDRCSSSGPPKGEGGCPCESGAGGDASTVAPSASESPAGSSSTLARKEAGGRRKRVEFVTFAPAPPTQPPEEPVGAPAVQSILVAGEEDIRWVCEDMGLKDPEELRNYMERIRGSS

[2] = target: T2, SNT truncation of T132A-Flag (mouse) (UniProt Q922P8)
T2 sequence: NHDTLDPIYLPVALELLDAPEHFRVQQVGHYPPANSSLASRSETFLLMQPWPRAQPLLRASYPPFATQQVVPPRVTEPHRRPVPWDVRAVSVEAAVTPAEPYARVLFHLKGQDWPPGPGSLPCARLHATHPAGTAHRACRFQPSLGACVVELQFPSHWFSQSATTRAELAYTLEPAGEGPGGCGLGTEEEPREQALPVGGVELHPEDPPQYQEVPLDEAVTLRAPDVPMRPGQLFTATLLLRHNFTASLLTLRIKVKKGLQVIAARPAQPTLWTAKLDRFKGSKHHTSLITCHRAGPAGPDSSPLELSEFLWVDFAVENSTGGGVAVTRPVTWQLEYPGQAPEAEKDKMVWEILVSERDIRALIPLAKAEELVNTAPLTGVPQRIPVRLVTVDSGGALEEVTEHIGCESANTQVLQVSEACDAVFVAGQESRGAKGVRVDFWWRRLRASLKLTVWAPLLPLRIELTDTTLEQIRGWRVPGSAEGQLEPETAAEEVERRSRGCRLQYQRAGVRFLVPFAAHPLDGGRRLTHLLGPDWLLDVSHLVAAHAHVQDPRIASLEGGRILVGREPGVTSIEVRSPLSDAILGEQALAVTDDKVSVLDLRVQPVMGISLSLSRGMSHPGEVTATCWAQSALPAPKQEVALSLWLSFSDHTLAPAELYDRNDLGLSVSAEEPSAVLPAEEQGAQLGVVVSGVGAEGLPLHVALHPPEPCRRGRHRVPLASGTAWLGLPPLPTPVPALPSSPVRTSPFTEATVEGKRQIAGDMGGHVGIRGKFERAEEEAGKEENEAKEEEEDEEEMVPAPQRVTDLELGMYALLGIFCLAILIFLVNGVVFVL

[3] = target: T3, ST construct of T132A-Flag (only the signal peptide and TM domain) (mouse) (UniProt Q922P8)
T3 sequence: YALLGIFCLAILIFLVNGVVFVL

[4] = target: T4, STC truncation of T132A-Flag (mouse) (UniProt Q922P8)
T4 sequence: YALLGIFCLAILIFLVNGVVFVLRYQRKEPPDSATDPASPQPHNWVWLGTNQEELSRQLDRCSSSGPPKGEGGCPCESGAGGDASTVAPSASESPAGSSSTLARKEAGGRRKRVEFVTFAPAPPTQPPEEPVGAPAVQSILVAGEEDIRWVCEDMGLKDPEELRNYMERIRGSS

binding [1]: binds
binding [2]: binds
binding [3]: binds
binding [4]: binds
B1: HA-tagged full-length WLS (FL WLS-HA) (protein, UniProt Q6DID7-1 1-541)
chain: MAGAIIENMSTKKLCIVGGILLVFQIVAFLVGGLIAPAPTTAVPYTAIKCVDVRKNHHKTRWLAPWGPNKCDKIRDIEEAIPREIEANDIVFSVHIPLPSMEMSPWFQFMLFILQLDIAFKLNNQIRENAEISMDVSLGYRDDMFSEWTEMAHERVPRKLKCTFTSPKTPEHEGRYYNCDVLPFMEIGSVAHKYYLLNIRLPVNEKKKINVGIGEIKDIRLVGIHQNGGFTKVWFAMKTFLTPSIFIIMVWYWRRITMMSRPPVLLEKVIFALGISMTFINIPVEWFSIGFDWTWMLLFGDIRQGIFYAMLLSFWIIFCGEHMMDQHERNHIAGYWKQVGPIAVGSFCLFIFDMCERGVQLTNPFYSIWTTDVGTELAMAFIIVAGICLCLYFLFLCFMVFQVFRNISGKQSSLPAMSKVRRLHYEGLIFRFKFLMLITLACAAMTVIFFIVSQVSEGHWKWGGVTVQVSSAFFTGIYGMWNLYVFALMFLYAPSHKNYGEDQSNGDLGVHSGEELQLTTTITHVDGPTEIYKLTRKEAQE
